Test results as given in the supplement of paper PMC6411743.
± gives the standard deviation of the averaged measurements. This is one part of the list.

By UniProt entry, the sequences of proteins in these tests, tags left out. Where a name states a change or a piece, a line headed by the entry shows the natural chain unless it says otherwise.
UniProt Q9BRX2, whole entry: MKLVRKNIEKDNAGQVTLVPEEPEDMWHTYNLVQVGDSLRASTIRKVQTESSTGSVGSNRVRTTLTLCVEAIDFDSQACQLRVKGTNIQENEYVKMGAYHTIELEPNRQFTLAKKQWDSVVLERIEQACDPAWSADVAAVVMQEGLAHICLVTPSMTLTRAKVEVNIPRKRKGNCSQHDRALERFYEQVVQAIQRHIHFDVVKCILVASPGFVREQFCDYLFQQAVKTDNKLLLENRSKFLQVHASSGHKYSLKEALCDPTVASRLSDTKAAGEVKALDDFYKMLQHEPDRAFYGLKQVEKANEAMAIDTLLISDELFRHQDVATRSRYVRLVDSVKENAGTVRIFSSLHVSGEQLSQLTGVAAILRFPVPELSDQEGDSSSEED
UniProt Q9BPZ3: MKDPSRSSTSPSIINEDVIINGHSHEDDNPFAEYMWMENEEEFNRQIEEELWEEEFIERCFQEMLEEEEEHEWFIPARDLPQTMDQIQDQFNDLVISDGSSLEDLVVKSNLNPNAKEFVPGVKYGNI
UniProt Q9BXP5: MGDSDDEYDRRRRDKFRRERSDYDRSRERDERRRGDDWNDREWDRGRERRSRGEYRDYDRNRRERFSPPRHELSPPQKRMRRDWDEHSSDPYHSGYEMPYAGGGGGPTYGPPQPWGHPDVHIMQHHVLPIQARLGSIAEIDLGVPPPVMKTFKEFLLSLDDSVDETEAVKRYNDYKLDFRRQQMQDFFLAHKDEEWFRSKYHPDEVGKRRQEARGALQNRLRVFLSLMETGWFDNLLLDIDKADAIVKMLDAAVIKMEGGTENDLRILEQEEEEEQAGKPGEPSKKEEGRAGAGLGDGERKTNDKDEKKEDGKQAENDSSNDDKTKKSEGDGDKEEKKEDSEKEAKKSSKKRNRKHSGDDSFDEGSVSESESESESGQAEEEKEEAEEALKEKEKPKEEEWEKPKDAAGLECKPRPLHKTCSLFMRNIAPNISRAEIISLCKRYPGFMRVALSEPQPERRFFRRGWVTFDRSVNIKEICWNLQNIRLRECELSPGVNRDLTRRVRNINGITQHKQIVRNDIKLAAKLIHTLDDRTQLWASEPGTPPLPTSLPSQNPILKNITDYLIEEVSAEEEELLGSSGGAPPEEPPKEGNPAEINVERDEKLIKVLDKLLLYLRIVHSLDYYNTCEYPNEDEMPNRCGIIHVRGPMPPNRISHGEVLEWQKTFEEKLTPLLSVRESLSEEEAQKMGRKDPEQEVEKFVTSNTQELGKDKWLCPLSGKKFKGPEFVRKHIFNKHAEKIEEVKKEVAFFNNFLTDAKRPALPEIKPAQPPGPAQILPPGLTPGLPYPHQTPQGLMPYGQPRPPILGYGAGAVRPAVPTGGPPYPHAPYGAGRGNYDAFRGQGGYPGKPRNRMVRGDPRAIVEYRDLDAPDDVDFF
UniProt Q9BYB4: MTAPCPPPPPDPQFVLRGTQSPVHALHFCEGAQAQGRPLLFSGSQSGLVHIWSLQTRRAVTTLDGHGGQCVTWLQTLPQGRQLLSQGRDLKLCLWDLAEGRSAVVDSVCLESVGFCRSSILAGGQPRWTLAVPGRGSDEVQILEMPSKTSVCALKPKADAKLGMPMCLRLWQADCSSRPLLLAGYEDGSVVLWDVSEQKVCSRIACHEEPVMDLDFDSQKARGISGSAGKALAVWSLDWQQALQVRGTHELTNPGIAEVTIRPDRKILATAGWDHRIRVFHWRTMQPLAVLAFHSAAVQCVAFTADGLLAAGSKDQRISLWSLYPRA
UniProt Q9BTZ2: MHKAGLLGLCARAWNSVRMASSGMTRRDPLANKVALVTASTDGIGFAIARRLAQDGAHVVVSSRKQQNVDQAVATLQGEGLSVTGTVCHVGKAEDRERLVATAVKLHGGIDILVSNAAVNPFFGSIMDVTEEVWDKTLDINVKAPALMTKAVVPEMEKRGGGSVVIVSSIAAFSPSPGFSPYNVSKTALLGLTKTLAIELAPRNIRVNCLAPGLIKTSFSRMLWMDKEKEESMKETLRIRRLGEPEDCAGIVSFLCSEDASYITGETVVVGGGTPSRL
UniProt Q99704: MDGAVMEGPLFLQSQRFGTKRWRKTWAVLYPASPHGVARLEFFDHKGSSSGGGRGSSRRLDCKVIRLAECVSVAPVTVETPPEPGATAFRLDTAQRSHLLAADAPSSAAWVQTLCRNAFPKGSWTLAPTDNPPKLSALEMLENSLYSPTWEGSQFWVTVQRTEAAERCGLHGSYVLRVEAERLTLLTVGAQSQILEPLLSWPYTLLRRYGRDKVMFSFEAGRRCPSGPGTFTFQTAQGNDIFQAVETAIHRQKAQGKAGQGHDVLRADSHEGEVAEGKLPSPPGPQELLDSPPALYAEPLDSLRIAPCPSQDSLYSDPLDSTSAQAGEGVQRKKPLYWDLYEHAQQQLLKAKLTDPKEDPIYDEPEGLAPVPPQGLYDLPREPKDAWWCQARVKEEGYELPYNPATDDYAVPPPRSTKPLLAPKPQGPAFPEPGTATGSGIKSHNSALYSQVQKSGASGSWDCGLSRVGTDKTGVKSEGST
UniProt Q9BSJ2, whole entry: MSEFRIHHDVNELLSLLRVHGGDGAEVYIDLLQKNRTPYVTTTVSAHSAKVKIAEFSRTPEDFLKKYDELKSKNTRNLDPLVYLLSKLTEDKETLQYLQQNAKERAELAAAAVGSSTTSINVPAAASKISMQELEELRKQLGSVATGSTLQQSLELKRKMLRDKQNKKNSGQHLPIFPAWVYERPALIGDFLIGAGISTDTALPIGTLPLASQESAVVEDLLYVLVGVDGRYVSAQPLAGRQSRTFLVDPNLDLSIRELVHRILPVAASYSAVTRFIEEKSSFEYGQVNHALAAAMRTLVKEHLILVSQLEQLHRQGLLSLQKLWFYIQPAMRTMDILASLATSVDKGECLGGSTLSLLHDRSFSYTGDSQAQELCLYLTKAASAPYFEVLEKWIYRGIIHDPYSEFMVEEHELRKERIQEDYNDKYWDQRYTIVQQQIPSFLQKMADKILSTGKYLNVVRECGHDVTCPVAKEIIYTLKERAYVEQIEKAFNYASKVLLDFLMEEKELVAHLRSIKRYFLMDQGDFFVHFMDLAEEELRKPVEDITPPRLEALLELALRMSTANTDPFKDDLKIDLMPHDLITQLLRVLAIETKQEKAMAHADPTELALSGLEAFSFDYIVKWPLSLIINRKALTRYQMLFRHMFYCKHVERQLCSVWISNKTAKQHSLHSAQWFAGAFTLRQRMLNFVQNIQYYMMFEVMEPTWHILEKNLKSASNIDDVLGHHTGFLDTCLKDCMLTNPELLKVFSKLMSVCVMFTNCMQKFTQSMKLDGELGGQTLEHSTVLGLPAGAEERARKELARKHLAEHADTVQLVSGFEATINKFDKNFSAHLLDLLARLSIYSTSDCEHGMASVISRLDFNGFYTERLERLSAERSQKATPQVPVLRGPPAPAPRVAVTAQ
UniProt Q9BVQ7: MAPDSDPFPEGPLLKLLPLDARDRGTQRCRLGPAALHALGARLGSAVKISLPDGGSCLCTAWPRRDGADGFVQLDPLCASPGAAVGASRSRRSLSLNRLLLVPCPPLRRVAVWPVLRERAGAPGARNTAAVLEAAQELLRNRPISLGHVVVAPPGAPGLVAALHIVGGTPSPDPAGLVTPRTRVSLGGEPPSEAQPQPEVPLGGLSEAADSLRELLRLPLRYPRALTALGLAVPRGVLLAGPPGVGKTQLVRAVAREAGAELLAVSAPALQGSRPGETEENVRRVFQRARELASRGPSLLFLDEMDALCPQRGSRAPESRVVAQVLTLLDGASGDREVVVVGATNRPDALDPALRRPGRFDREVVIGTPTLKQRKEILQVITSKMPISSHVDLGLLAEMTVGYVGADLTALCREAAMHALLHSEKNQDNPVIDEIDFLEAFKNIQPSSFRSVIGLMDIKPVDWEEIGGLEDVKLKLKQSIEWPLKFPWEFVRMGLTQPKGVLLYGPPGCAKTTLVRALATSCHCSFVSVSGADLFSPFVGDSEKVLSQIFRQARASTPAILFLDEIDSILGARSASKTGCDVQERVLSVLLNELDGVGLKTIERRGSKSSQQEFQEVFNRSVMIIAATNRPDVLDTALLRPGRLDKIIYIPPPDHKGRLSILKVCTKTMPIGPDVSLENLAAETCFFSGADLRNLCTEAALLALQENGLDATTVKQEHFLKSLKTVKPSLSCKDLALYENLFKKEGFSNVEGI
UniProt Q9BQG0: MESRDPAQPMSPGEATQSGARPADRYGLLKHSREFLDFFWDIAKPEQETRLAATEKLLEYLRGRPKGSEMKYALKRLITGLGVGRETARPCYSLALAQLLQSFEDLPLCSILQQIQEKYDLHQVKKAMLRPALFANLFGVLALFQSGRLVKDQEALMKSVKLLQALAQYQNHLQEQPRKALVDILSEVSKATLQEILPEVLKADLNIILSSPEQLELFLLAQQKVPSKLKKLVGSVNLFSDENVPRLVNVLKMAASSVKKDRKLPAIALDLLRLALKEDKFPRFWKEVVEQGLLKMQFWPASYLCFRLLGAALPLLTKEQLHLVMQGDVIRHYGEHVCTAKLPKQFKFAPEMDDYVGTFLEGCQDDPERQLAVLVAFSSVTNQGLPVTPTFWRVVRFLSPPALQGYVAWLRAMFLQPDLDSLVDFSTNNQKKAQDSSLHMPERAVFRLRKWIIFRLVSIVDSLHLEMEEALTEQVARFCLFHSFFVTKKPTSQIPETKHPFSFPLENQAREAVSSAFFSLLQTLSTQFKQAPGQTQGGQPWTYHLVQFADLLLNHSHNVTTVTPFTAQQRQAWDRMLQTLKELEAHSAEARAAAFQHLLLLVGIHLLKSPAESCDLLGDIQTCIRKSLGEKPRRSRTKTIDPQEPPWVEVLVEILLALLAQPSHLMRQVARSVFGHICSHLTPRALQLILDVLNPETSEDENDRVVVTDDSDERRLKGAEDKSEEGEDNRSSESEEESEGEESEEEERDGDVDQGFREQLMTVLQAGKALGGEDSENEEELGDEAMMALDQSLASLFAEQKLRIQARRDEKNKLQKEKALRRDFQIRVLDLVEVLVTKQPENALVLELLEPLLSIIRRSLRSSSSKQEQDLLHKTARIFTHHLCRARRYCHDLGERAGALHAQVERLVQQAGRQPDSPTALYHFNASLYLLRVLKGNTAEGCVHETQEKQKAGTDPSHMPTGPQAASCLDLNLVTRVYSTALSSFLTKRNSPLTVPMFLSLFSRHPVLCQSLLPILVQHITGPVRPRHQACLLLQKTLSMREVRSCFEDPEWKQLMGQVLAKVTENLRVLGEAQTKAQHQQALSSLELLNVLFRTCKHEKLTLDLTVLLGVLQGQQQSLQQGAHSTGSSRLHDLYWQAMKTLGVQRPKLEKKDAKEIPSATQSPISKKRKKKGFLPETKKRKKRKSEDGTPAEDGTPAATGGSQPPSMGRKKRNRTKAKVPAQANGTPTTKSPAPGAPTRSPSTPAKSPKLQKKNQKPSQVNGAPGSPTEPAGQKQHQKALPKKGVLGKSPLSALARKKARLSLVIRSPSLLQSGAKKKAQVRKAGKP
UniProt Q99962: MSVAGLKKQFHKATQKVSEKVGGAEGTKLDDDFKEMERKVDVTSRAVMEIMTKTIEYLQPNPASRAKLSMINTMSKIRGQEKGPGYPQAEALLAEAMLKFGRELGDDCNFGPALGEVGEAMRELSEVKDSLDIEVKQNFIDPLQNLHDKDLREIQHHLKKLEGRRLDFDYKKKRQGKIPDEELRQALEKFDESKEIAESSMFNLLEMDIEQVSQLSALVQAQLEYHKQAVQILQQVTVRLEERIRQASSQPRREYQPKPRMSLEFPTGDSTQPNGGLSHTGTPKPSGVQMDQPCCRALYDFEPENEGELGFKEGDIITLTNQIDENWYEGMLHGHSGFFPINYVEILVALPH
UniProt Q9BSC4: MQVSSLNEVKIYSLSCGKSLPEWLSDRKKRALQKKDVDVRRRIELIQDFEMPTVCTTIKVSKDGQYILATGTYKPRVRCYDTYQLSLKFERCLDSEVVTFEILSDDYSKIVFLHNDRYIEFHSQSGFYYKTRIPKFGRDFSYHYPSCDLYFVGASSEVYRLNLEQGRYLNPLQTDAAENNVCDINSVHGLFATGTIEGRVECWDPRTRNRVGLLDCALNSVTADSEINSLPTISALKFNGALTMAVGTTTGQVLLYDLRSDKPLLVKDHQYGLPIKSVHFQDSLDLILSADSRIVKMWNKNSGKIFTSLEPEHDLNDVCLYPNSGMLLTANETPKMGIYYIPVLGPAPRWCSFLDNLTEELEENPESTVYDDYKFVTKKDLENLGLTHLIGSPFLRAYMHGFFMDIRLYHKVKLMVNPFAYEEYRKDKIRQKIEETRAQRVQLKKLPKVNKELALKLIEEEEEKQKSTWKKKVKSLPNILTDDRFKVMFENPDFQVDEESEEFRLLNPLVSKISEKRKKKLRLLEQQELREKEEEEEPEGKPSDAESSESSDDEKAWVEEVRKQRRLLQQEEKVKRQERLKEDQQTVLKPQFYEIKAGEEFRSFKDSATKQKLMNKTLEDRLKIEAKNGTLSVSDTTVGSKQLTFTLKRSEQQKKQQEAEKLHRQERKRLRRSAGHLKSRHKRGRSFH

Compound: Nc1nc2c(ncn2[C@@H]2O[C@H](COP(=O)(O)OP(=O)(O)OP(=O)(O)O)[C@@H](O)[C@H]2O)c(=O)[nH]1 [guanosine triphosphate]
Test: NP40-soluble protein abundance relative to vehicle (solubility fold change) (ratio); higher = more soluble protein in presence of GTP
Summary of the method: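 Values are fold changes against the detergent-processed vehicle, based on vsn-normalised intensities. Jurkat crude lysate was treated at eight concentrations from 0.1 to 10 mM (10 min at room temperature, then 3 min at 37 °C), solubilised with 0.8% NP40 and benzonase, ultracentrifuged and analysed by TMT-labelled LC-MS/MS over three independent experiments.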

Target	NP40-soluble protein abundance (concentration: 0.1mM)	NP40-soluble protein abundance (concentration: 0.5mM)	NP40-soluble protein abundance (concentration: 1mM)	NP40-soluble protein abundance (concentration: 2mM)	NP40-soluble protein abundance (concentration: 4mM)	NP40-soluble protein abundance (concentration: 6mM)	NP40-soluble protein abundance (concentration: 8mM)	NP40-soluble protein abundance (concentration: 10mM)
PELO (UniProt Q9BRX2)	0.959 ± 0.059	1 ± 0.089	0.912 ± 0.048	0.918 ± 0.057	0.914 ± 0.057	0.973 ± 0.041	0.948 ± 0.078	0.968 ± 0.082
PAIP2 (UniProt Q9BPZ3)	0.963 ± 0.037	0.958 ± 0.05	0.938 ± 0.043	0.88 ± 0.053	0.907 ± 0.037	0.949 ± 0.036	1.03 ± 0.051	0.99 ± 0.057
UniProt Q9BQS8 and related entries	1.03 ± 0.1	0.991 ± 0.067	1.05 ± 0.074	1.06 ± 0.11	1.1 ± 0.047	1.04 ± 0.03	1.03 ± 0.06	1.04 ± 0.11
UniProt Q9BXP5 and related entries	0.96 ± 0.061	0.998 ± 0.059	1.04 ± 0.048	1.04 ± 0.081	1.1 ± 0.09	1.12 ± 0.09	1.18 ± 0.15	1.16 ± 0.15
GNB1L (UniProt Q9BYB4)	1 ± 0.031	1.01 ± 0.035	0.945 ± 0.066	0.939 ± 0.057	0.932 ± 0.055	0.919 ± 0.056	0.919 ± 0.072	0.911 ± 0.12
DHRS4 (UniProt Q9BTZ2)	0.986 ± 0.016	0.968 ± 0.041	0.889 ± 0.016	0.907 ± 0.056	0.905 ± 0.058	0.877 ± 0.05	0.863 ± 0.059	0.828 ± 0.06
UniProt Q9BXI6 and related entries	1.04 ± 0.017	0.983 ± 0.039	1 ± 0.035	0.982 ± 0.054	0.97 ± 0.077	0.929 ± 0.032	1.01 ± 0.033	0.957 ± 0.04
UniProt Q99504 and related entries	1 ± 0.067	1.01 ± 0.024	0.982 ± 0.035	0.969 ± 0.063	0.949 ± 0.078	0.958 ± 0.03	0.944 ± 0.053	0.929 ± 0.037
DOK1 (UniProt Q99704)	1.01 ± 0.032	0.99 ± 0.036	0.996 ± 0.029	0.95 ± 0.013	0.907 ± 0.046	0.966 ± 0.036	0.9435 ± 0.0054	0.919 ± 0.019
BDH2 (UniProt Q9BUT1)	0.993 ± 0.06	0.958 ± 0.062	0.966 ± 0.096	0.961 ± 0.047	0.95 ± 0.12	0.917 ± 0.073	0.915 ± 0.15	0.911 ± 0.12
UniProt Q9BSJ2 and related entries	1.09 ± 0.058	1.12 ± 0.14	1.17 ± 0.2	1.22 ± 0.23	1.28 ± 0.24	1.22 ± 0.31	1.23 ± 0.28	1.16 ± 0.29
HEMGN (UniProt Q9BXL5)	0.943 ± 0.05	0.978 ± 0.058	1.04 ± 0.12	1.04 ± 0.11	0.98 ± 0.11	0.994 ± 0.15	1.03 ± 0.052	1.09 ± 0.034
RIOK1 (UniProt Q9BRS2)	1.11 ± 0.025	1.1 ± 0.043	1.147 ± 0.0086	1.18 ± 0.057	1.27 ± 0.079	1.25 ± 0.11	1.26 ± 0.077	1.31 ± 0.17
ATAD5 (UniProt Q96QE3)	1.14 ± 0.1	0.98 ± 0.02	1.08 ± 0.025	1.12 ± 0.022	1.2 ± 0.038	1.17 ± 0.018	1.15 ± 0.051	1.12 ± 0.045
RNF5 (UniProt Q99942)	0.966 ± 0.028	0.984 ± 0.022	0.964 ± 0.037	0.9429 ± 0.0026	0.954 ± 0.051	0.958 ± 0.065	0.9927 ± 0.0083	1.01 ± 0.072
SPATA5L1 (UniProt Q9BVQ7)	1.16 ± 0.12	1.16 ± 0.14	1.23 ± 0.13	1.36 ± 0.12	1.41 ± 0.087	1.41 ± 0.066	1.42 ± 0.016	1.4 ± 0.084
UniProt Q9BQG0 and related entries	0.997 ± 0.011	1.01 ± 0.019	1.01 ± 0.038	0.989 ± 0.013	0.959 ± 0.036	0.938 ± 0.028	0.96 ± 0.042	0.942 ± 0.044
TM9SF2 (UniProt Q99805)	1.08 ± 0.11	1.09 ± 0.15	0.972 ± 0.1	0.99 ± 0.12	0.965 ± 0.14	0.94 ± 0.11	0.91 ± 0.048	0.903 ± 0.085
SH3GL2 (UniProt Q99962)	0.922 ± 0.014	0.876 ± 0.054	0.929 ± 0.065	1.05 ± 0.037	0.945 ± 0.1	0.887 ± 0.11	0.834 ± 0.065	0.927 ± 0.075
DCUN1D5 (UniProt Q9BTE7)	0.984 ± 0.048	0.929 ± 0.07	0.918 ± 0.076	0.916 ± 0.077	0.948 ± 0.027	0.883 ± 0.056	0.891 ± 0.069	0.883 ± 0.074
SIN3A (UniProt Q96ST3)	1.02 ± 0.036	1.06 ± 0.028	1.06 ± 0.04	1.09 ± 0.069	1.13 ± 0.093	1.13 ± 0.086	1.16 ± 0.13	1.15 ± 0.11
UniProt Q96T23 and related entries	1.02 ± 0.028	1.09 ± 0.081	1.25 ± 0.014	1.45 ± 0.1	1.72 ± 0.22	2.07 ± 0.29	2.49 ± 0.49	2.71 ± 0.62
UniProt Q96N64 and related entries	1.01 ± 0.059	0.977 ± 0.13	1.04 ± 0.068	1.08 ± 0.096	1.12 ± 0.15	1.12 ± 0.12	1.19 ± 0.13	1.3 ± 0.15
GPA33 (UniProt Q99795)	0.897 ± 0.015	0.8973 ± 0.0018	0.937 ± 0.015	0.877 ± 0.052	0.82 ± 0.036	0.871 ± 0.066	0.878 ± 0.072	0.967 ± 0.047
UniProt Q9BSC4 and related entries	0.98 ± 0.12	1.03 ± 0.1	1.13 ± 0.13	1.21 ± 0.17	1.3 ± 0.18	1.39 ± 0.16	1.49 ± 0.18	1.64 ± 0.24
UniProt Q96N66 and related entries	1.05 ± 0.11	1.09 ± 0.038	0.977 ± 0.012	0.945 ± 0.041	0.951 ± 0.076	0.943 ± 0.037	0.913 ± 0.052	0.872 ± 0.061
UniProt Q96RW7 and related entries	1.17 ± 0.29	1.11 ± 0.23	0.938 ± 0.16	1.06 ± 0.37	0.985 ± 0.2	0.889 ± 0.19	0.892 ± 0.13	0.924 ± 0.16
PDCD2L (UniProt Q9BRP1)	0.98 ± 0.055	0.965 ± 0.083	0.932 ± 0.072	0.964 ± 0.082	0.939 ± 0.12	0.96 ± 0.034	0.951 ± 0.12	0.974 ± 0.041
ACAT2 (UniProt Q9BWD1)	0.926 ± 0.041	0.963 ± 0.028	0.901 ± 0.06	0.907 ± 0.043	0.85 ± 0.061	0.898 ± 0.056	0.871 ± 0.036	0.908 ± 0.04
TCF25 (UniProt Q9BQ70)	1.02 ± 0.053	1.02 ± 0.14	1.04 ± 0.072	1.07 ± 0.15	1.12 ± 0.13	1.03 ± 0.057	1.12 ± 0.19	1.2 ± 0.17

Reformatted: entries from further up.
Target | NP40-soluble protein abundance (concentration: 0.1mM) | NP40-soluble protein abundance (concentration: 0.5mM) | NP40-soluble protein abundance (concentration: 1mM) | NP40-soluble protein abundance (concentration: 2mM) | NP40-soluble protein abundance (concentration: 4mM) | NP40-soluble protein abundance (concentration: 6mM) | NP40-soluble protein abundance (concentration: 8mM) | NP40-soluble protein abundance (concentration: 10mM)
UniProt Q9BQS8 and related entries | 1.03 ± 0.1 | 0.991 ± 0.067 | 1.05 ± 0.074 | 1.06 ± 0.11 | 1.1 ± 0.047 | 1.04 ± 0.03 | 1.03 ± 0.06 | 1.04 ± 0.11
GNB1L (UniProt Q9BYB4) | 1 ± 0.031 | 1.01 ± 0.035 | 0.945 ± 0.066 | 0.939 ± 0.057 | 0.932 ± 0.055 | 0.919 ± 0.056 | 0.919 ± 0.072 | 0.911 ± 0.12
RIOK1 (UniProt Q9BRS2) | 1.11 ± 0.025 | 1.1 ± 0.043 | 1.147 ± 0.0086 | 1.18 ± 0.057 | 1.27 ± 0.079 | 1.25 ± 0.11 | 1.26 ± 0.077 | 1.31 ± 0.17
RNF5 (UniProt Q99942) | 0.966 ± 0.028 | 0.984 ± 0.022 | 0.964 ± 0.037 | 0.9429 ± 0.0026 | 0.954 ± 0.051 | 0.958 ± 0.065 | 0.9927 ± 0.0083 | 1.01 ± 0.072
SH3GL2 (UniProt Q99962) | 0.922 ± 0.014 | 0.876 ± 0.054 | 0.929 ± 0.065 | 1.05 ± 0.037 | 0.945 ± 0.1 | 0.887 ± 0.11 | 0.834 ± 0.065 | 0.927 ± 0.075
UniProt Q96N64 and related entries | 1.01 ± 0.059 | 0.977 ± 0.13 | 1.04 ± 0.068 | 1.08 ± 0.096 | 1.12 ± 0.15 | 1.12 ± 0.12 | 1.19 ± 0.13 | 1.3 ± 0.15
